Laboratory results reported in patent US10149855B2, “Gamma-secretase inhibition reduce APOC3 levels and plasma triglycerides” (THE TRUSTEES OF COLUMBIA UNIVERSITY IN THE CITY OF NEW YORK, priority 2014, dated 2018).

Tested on: Lean mice, diet induced obese (DIO) mice, and leptin-deficient obese (ob/ob) mice
Assay: Weight, glucose and insulin of mice administered GSI (DBZ) or vehicle
Format: in vivo
Protocol: Lean mice, diet induced obese (DIO) mice, and leptin-deficient obese (ob/ob) mice were administered either vehicle or GSI. [table]

Work on `C[C@H](NC(=O)Cc1cc(F)cc(F)c1)C(=O)N[C@@H]1C(=O)N(C)c2ccccc2-c2ccccc21` [GSI, N-[(1S)-2-[[(7S)-6,7-dihydro-5-methyl-6-oxo-5H-dibenz[b,d]azepin-7-yl]amino]-1-methyl-2-oxoethyl]-3,5-difluoro-benzeneacetamide] yielded a Weight (DIO mice) of 33 ± 0.7 grams, a Weight (lean mice) of 22 ± 0.6 grams and a Weight (ob/ob mice) of 48 ± 0.9 grams.
